Results are given in words; binding and its absence hold for the method and conditions named. Binding calls can cover weak binding; strength is not graded here.
Legend:
[1] = biological target: human recombinant pro-EMAP II (human); test: Western blot of recombinant pro-EMAP II with M7/1
[2] = biological target: human recombinant pro-EMAP II (human); test: protection from tryptic digestion by immobilized antibody
[3] = biological target: mature-EMAP II protein (Mus musculus (Mouse)); test: ELISA of hybridoma supernatants

Measured: binding

B1: rat antibody hybridoma clone M7/1 (EMAP II neutralizing M7/1 antibody) (antibody, V domains shown)
VH: AVHLVESGGGFVQPTESLKISCAASGFTFSDAAMYWVRQAPGKGLEWVARIRTKPNNYATYYADSVKGRFTISRDDSKSMVYLQMDNLKTEDTAMYYCTSWSYDFDYWGQGVMVTVSS
VL: DIVMTQGALPNPVPSGESASITCQSSKSLLHSSGKTYLNWYLQRPGQSPHLLIYWMSTRASGVSDRLSGSGSGTDFTLKISSVEAEDVGVYYCQQFLEYPLTFGSGTKLEIK
binds: all assays above

— patent US20200040069A1
